Some of the results follow.

In this assay the test system is T1, CTL2-GFP (C. trachomatis L2/434/Bu, GFP-expressing).
T1 construct: L2/434/Bu, GFP-expressing
On the set-up: species or system HeLa; Intracellular C. trachomatis growth in HeLa cells, bulk GFP fluorescence relative to DMSO. The note with it: bulk GFP, single well; 28.5 h, 10 µM; inhibitor.
Take `Cc1nccn1CCNC(=O)CCc1cn(C)c2ccccc12` [CBK281962]: the “% of control remaining” value came out at 120.389%.
The result for `COc1nc(-c2cccnc2)cn2ccnc12` [CBK093490] reads 145.996%.
As to `CC(=O)NCCNc1ccc(C(=O)O)cc1[N+](=O)[O-]` [CBK264184], the “% of control remaining” value is recorded as 134.241%.
`OC1(c2cccnc2F)CCN(Cc2ccc(Cl)cc2)CC1` [CBK284368]: the “% of control remaining” value is 94.9825%.
As for `Cc1ccc(C(=O)O)cc1NC(=O)C(=O)NCC(c1ccccc1)N1CCN(C)CC1` (stereo not shown) [CBK286864], the “% of control remaining” value stood at 139.345%.
In the case of `O=C(CCCc1nc(-c2ccc(Cl)cc2)no1)NCc1cccnc1` [CBK269415], the “% of control remaining” value was determined as 122.111%.
The figure for `CCOC(=O)c1c(C)nc2n(CCN3CCCCC3)c3ccccc3n12` [CBK278238C] is 100%; for `O=C(NCCN1CCOCC1)C1CCN(c2nc3c(-c4ccccc4F)csc3c(=O)[nH]2)CC1` [CBK215442] it is 133.017%; for `Cn1nc(-c2ccc(S(=O)(=O)n3cc(C#N)c(N)n3)s2)cc1C(F)(F)F` [CBK067237] it is 123.861%.
The figure for `OCCN(CCO)CC1CC2C=CC1C2` (stereo not shown) [CBK261874] is 120.818%.
With `CN(C)CC(C)(C)CN1C2CCC1CC(O)(c1ccccc1F)C2` (stereo not shown) [CBK282648], the “% of control remaining” value was 151.361%.
Take `O=C(Cn1c(-c2cccs2)cc2cccnc21)N1CCOCC1` [CBK282452]: the “% of control remaining” value is 125.457%.
Turning to `Cc1cccc(=O)n1CCCn1cc(C2CCCNC2)nn1` (stereo not shown) [CBK306946], the “% of control remaining” value turned out to be 138.385%.
For the molecule `O=C(c1ccncc1)C12CN3CN(CN(C3)C1)C2` [CBK261451], the “% of control remaining” value came out at 100%.
As to `COC(=O)c1c(-c2ccc(F)cc2)csc1NC(=O)CSc1ncnc2sc3c(c12)CCC3` [CBK265976], the “% of control remaining” value was found to be 121.269%.
For the molecule `CCN1CC(C(=O)N2CCN(C)CC2c2ccccc2)CC1=O` (stereo not shown) [CBK282026], the “% of control remaining” value is on record as 129.603%.
The figure for `CC(C)N(CCOc1nccnc1-c1ccsc1)C(C)C` [CBK106777] is 83.2421%; for `COc1ccc(CCC2CCN(C)CC2)c(O)c1` [CBK283668] it is 149.604%.
The figure for `CCn1cc(C2CN(S(=O)(=O)c3cccc(C(C)C)c3)CCO2)cn1` (stereo not shown) [CBK304227] is 103.06%; for `O=C(O)CCC1NC(=O)N(C2CCCCC2)C1=O` (stereo not shown) [CBK287046] it is 149.796%.
The result for `CCOC(=O)Nc1ccsc1C(=O)OC` [CBK027880] reads 137.935%; that for `Cc1ccc(C(=O)n2c(=S)nc3ccccn32)cc1` [CBK025729], 157.712%; that for `COCC(=O)N1C2CCC(C2)[C@@H]1COc1ccc(F)cc1` (stereo partly shown) [CBK284603], 110.004%.
With `CCOC(=O)c1ccccc1NC(=O)n1ccc2c(N3CCNCC3)cccc21` [CBK003731C], the “% of control remaining” value was found to be 34.905%.
Consider `Cc1cc(C)n(CCC(=O)N2CCCC2c2nc3ccccc3[nH]2)n1` (stereo not shown) [CBK283664], for which the “% of control remaining” value came out at 92.1895%.
The result for `C[C@H](c1ccccc1)n1c(=O)[nH]c2ncc(-c3cncc4ccccc34)nc21` [CBK064709] reads 130.169%.
Turning to `O=C1C2N=NN(Cc3ccccc3)C2C(=O)N1C1CCCCC1` (stereo not shown) [CBK067389], the “% of control remaining” value is recorded as 106.882%.
In the case of `Cc1ccnn1CCNC(=O)C(C)Cc1cccs1` (stereo not shown) [CBK281633], the “% of control remaining” value stood at 101.166%.
On to `Cn1nc(C2CC2)cc1NS(C)(=O)=O` [CBK038148], for which the “% of control remaining” value is 130.438%.
The figure for `Cc1cc(NC(=O)CCn2cc(Br)cn2)no1` [CBK304326] is 126.187%; for `O=C(c1ccccc1F)N1C[C@H](c2ccsc2)[C@H]2CN(Cc3ccsc3)CC[C@H]21` [CBK285661] it is 111.105%.
The result for `Cc1nn(CC(=O)NC(C)c2cccnc2)c(C)c1C` (stereo not shown) [CBK281489] reads 128.556%.
In the case of `COc1ccc(C(CNC(=O)C(=O)Nc2ccc(C(=O)O)cc2)N(C)C)cc1` (stereo not shown) [CBK286724], the “% of control remaining” value was 70.5573%.
The figure for `Cc1cc(COc2cc(N3CCCC3)ncn2)no1` [CBK115898] is 100%; for `O=C(Nc1nnc(-c2ccccn2)o1)c1cc(Cl)ccc1Cl` [CBK287429] it is 107.406%.
The figure for `Cc1[nH]c2ccc(F)cc2c1-c1cn2c3c(nnc2n1)CCCC3` [CBK283172] is 140.858%; for `O=C(Nc1ccccc1)[C@H]1O[C@H](CCN2CCN(c3ccccn3)CC2)CC[C@@H]1O` [CBK288726] it is 123.772%.
The figure for `CCOC(=O)c1cnc2c(C)c(Cl)ccc2c1NCCN(C)C` [CBK265965] is 100%.
For the molecule `COC(=O)C(C)CSc1ccc(C(C)(C)C)cc1` (stereo not shown) [CBK010499], the “% of control remaining” value is 109.04%.
`Cc1ccc2cc3c(nc2c1)OCC(=O)N(Cc1ccco1)C3` [CBK283539]: the “% of control remaining” value is reported as 87.8222%.
For `CC(=O)N1CCC(N2CC[C@H](c3nnc(-c4ccco4)o3)C2)CC1` [CBK289395], the “% of control remaining” value came out at 121.656%.
The result for `O=C(Nc1ccn(C23CC4CC(CC(C4)C2)C3)n1)c1ccco1` [CBK288023] reads 112.387%.
The result for `Cc1ccc(C2(O)CCN(CCNC(=O)C3CC3C)CC2)cc1` (stereo not shown) [CBK282607] reads 120.709%.
The result for `Cc1c2c(n(-c3ccccc3)[n+]1[O-])NC1(CCC1)[C@@H]1C[C@@H](O)[C@@H](O)[C@H]21` [CBK303253] reads 117.374%.
`Cc1cccn2cc(-c3ccc4c(c3)CCN4S(C)(=O)=O)cc12` [CBK285226]: the “% of control remaining” value was found to be 142.182%.
As for `COc1ccccc1-c1cnc(N)c(NCc2ccccc2)n1` [CBK063357], the “% of control remaining” value worked out at 166.776%.
Take `Cc1nc(-c2ccc(CNC(=O)c3cc(=O)[nH]c4ccccc34)o2)cs1` [CBK238261]: the “% of control remaining” value worked out at 146.068%.
The figure for `CNC(=O)CN1CCC[C@@H]2NC(=O)COc3ccccc3C(=O)N[C@@H]3CCOC[C@@H]3C/C=C/C[C@@H]21` [CBK292040] is 175.537%; for `c1ccc(-c2cc(CC3(NCc4cccnc4)COC3)no2)nc1` [CBK289238] it is 155.619%.
The result for `CN(C)C(=O)Cn1nc(C(c2ccccc2)c2ccccc2)oc1=O` [CBK283747] reads 109.32%; that for `Cc1cc(C(=O)N2CCC(C(=O)c3ccnn3C)CC2)sc1C` [CBK284428], 133.167%.
On to `Cn1c(C(=O)N2CCc3ccccc3C2)cc2ccccc21` [CBK200337], for which the “% of control remaining” value came to 134.603%.

The record behind these values is publication PMC12040169 (PLOS Biology, 2025).
